# Results deposited as PubChem BioAssay AID504791 (Drosophila RNAi Screening Center, 2011).
# Assay: 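Factors in Argonaute-based small RNA production and activity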 (primary screen)
# System: Drosophila S2-derived reporter cells
# Reagents: long dsRNA against Drosophila genes, about 150-250 ng dsRNA per well (siRNA assay); about 80-120 ng (miRNA assay)
# Time to read-out: about 5 days (siRNA assay); about 4 days (miRNA assay)
# Challenge: copper sulfate induction of reporters: 25 µM (siRNA assay); 200 mM stated (miRNA assay), 1-2 days before reading
# Detection: 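Dual luciferase assay: Renilla to firefly signal ratio in each well, scaled to the mean ratio of its plate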
# Rule for the call: 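a well was a first-pass pick when its plate-scaled ratio rose above 1.5 (siRNA assay) or 1.6 (miRNA assay), or dropped below 0.6; a gene counted only if two separate dsRNAs agreed on retest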
# In all, the deposit lists about 23,000 reagents; this is a random part of those with a known target gene and a result. Over the whole deposit, 199 (0.86%) got an active call. 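Plate-scaled ratios behind the calls are not deposited; printed light signals are raw; many rows marked increased or decreased are still called inactive.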 Reagents against one gene are numbered here. Names joined by + are all predicted targets of the reagent. Not stated in the record: the direction of the score.
target gene,dsRNA no.,stable siRNA reporter change,miRNA reporter change,"stable assay Renilla, run 1 (luminescence)","stable assay firefly, run 1 (luminescence)",Outcome
CG30050,1,,,5427,3.54e5,inactive
Sk1,1,,,5120,4.51e5,inactive
CG15098,1,,,7056,4.42e5,inactive
HGTX,1,,,5699,4.00e5,inactive
HGTX,2,,,7364,3.10e5,inactive
tau,1,,,5007,2.73e5,inactive
tau,2,,,4667,3.19e5,inactive
CG12128 + CG1407,1,,,7766,4.40e5,inactive
Npc2f,1,,,8011,3.55e5,inactive
Msh6,1,,,6978,2.79e5,inactive
Sirt7,1,,,8717,6.26e5,inactive
CG4404,1,,,5415,3.85e5,inactive
Nak,1,,,1.19e5,1.22e6,inactive
CG10660,1,,,10901,5.01e5,inactive
pot,1,,,8889,6.44e5,inactive
Pde8,1,,,1.25e5,4.81e5,inactive
CG42685,1,,,5155,3.80e5,inactive
PMCA,1,,,7834,3.77e5,inactive
PMCA,2,,,7870,3.95e5,inactive
PMCA,3,,,7746,3.82e5,inactive
O-fut2,1,,,7420,4.98e5,inactive

A run of entries taken from the entries so far, for reference:
target gene,dsRNA no.,stable siRNA reporter change,miRNA reporter change,"stable assay Renilla, run 1 (luminescence)","stable assay firefly, run 1 (luminescence)",Outcome
CG4404,1,,,5415,3.85e5,inactive
Nak,1,,,1.19e5,1.22e6,inactive
CG10660,1,,,10901,5.01e5,inactive

Continued.
target gene,dsRNA no.,stable siRNA reporter change,miRNA reporter change,"stable assay Renilla, run 1 (luminescence)","stable assay firefly, run 1 (luminescence)",Outcome
Gr59d,1,,,5036,4.70e5,inactive
CG7542,1,,,7942,3.64e5,inactive
CG6974,1,,,7522,3.36e5,inactive
Polr2F,1,,,4227,1.86e5,inactive
TBC1D23,1,,,8202,4.31e5,inactive
Kmn1,1,,,5956,4.83e5,inactive
ab,1,reporter ratio raised past the hit cutoff,,6307,1.74e5,inactive
ab,2,,,2828,3.31e5,inactive
CG11899,1,,,6602,5.11e5,inactive
CG43901,1,,,5340,3.73e5,inactive
CG43901,2,,,4036,2.50e5,inactive
CG5302 (retired record),1,,,6727,3.90e5,inactive
CG5302 (retired record),2,,,7194,4.24e5,inactive
CG5302 (retired record),3,,,4563,5.15e5,inactive
ND-B17,1,,,7002,4.24e5,inactive
ppk,1,,,7487,5.01e5,inactive
dysc,1,,,5028,3.37e5,inactive
dysc,2,,,7907,5.98e5,inactive
dysc,3,,,8429,5.32e5,inactive
dysc,4,,,4759,4.68e5,inactive
CG12035,1,,,10171,3.53e5,inactive
CG10344,1,,,6103,3.52e5,inactive
CG10344,2,,reporter ratio raised past the hit cutoff,,,active
Adi1,1,,,5391,3.31e5,inactive
Adi1,2,,,8774,4.61e5,inactive
CG12883,1,,,7015,4.60e5,inactive
Whamy,1,,,6392,3.68e5,inactive
CG14270,1,,,6183,4.76e5,inactive
CG8141,1,,,6143,4.36e5,inactive
CG4362,1,,,8565,5.12e5,inactive
nord,1,,,5531,2.95e5,inactive
nord,2,,,6226,4.14e5,inactive
TTLL4B,1,,,27675,1.69e5,inactive
TTLL4B,2,,reporter ratio lowered past the hit cutoff,,,inactive
Act79B,1,reporter ratio lowered past the hit cutoff,,5890,5.66e5,inactive
CG17343,1,,,6463,4.45e5,inactive
CG17343,2,,,3504,3.02e5,inactive
